# Reference: PMC9585911
# No constants are given. Whether binding was seen depends on the method and setting. Binding seen in cells or lysates may run through a third protein. These calls come from enrichment with a bait or labelling near it, and not all partners need be listed.
# Target: Strep-tagged Nsp8 of SARS-CoV-2 (SARS-CoV-2) (UniProt P0DTD1)
# Assay: affinity purification with mass spectrometry
row,Substance,binding
1,EXOSC2 (from UniProt Q13868 1-293),binds
2,EXOSC7 (from UniProt Q15024 1-291),binds
3,EXOSC1 (from UniProt Q9Y3B2 1-195),binds
4,EXOSC9 (from UniProt Q06265 1-439),binds
5,EXOSC3 (from UniProt Q9NQT5 1-275),binds
6,EXOSC6 (from UniProt Q5RKV6 1-272),binds
7,EXOSC5 (from UniProt Q9NQT4 1-235),binds
